The text below walks through data of BindingDB's records for doi:10.7270/Q251433M (D3R/Abbott, 2020).

The chains behind the UniProt entries cited, without tags or fusion partners.
UniProt Q16539, whole entry: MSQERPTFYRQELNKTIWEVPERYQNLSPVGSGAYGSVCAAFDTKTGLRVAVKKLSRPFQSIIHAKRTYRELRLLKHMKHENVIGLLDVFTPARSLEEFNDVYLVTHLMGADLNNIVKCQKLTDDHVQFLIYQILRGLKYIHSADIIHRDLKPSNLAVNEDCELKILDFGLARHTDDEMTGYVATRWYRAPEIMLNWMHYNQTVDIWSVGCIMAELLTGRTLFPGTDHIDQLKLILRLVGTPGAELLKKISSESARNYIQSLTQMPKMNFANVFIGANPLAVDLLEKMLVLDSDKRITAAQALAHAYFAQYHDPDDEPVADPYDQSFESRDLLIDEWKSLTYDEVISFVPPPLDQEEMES

The term Kd denotes the equilibrium constant for the complex coming apart. The low end stands for a tighter complex, the high end for a looser complex.

In this experiment the target is Mitogen-activated protein kinase 14 (Homo sapiens, UniProt Q16539).

Compound `CS(=O)(=O)c1ccccc1-c1nc(-c2ccc(F)cc2)c(-c2ccncc2)[nH]1` [D3RKN_30] returned an equilibrium dissociation constant (Kd) of 50 nM. This lies in the double-digit nanomolar range.

Compound `O=C(O)c1ccc(-c2nc(-c3ccc(F)cc3)c(-c3ccncc3)[nH]2)cc1` [D3RKN_53] gave a Kd of 1.3 nM.
